# According to US5312812A, “Pharmaceutical compositions comprising novel oligopeptides exhibiting selective inhibiting effect upon the proliferation of hemopoietic cells” (Richter Gedeon Vegyeszeti Gyar Rt., priority 1990, dated 1994):
# Where two headings read alike, the source gives them in different places. Part of at least one peptide drawing is inferred or uncertain, most often the ends. Where a SMILES comes first, the peptide text is derived from it. [ ]: non-standard residue; d: D form. The star is where a group is joined. pGlu = O=C1CC[C@@H](C(=O)O)N1; Acm = CC(=O)NC*
# Key:
# human cells = details: cited from earlier work
# rat cells = details: cited from earlier work
# mouse cells = details: cited from earlier work
# rat bone marrow cells = experiment: Test on short-term culture: incorporation of tritiated thymidine; type: cell-based; details: for decrease of the incorporation of the tritiated thymidine into the cell culture: 10^-7 mole/l, 4 hours incubation
# cell proliferation = details: cited from earlier work
# rat thymus cells = experiment: Incorporation of tritiated thymidine in thymus cells; type: cell-based
Compound,concentration at which the myelopoiesis inhibiting effect is dose-dependent (human cells),concentration at which the myelopoiesis inhibiting effect is dose-dependent (rat cells),concentration at which the myelopoiesis inhibiting effect is dose-dependent (mouse cells),decrease of the incorporation of the tritiated thymidine into the cell culture (rat bone marrow cells),inhibition of proliferation (cell proliferation; in mercapto ethanol of 0.1 to 0.3 mmole/l),inhibition of proliferation (cell proliferation; without mercapto ethanol),inhibition of proliferation on the basis of incorporation of tritiated thymidine (rat thymus cells),inhibition of proliferation on the basis of incorporation of tritiated thymidine (rat bone marrow cells; rat bone marrow cells)
"NCCCC[C@H](NC(=O)[C@H](CS)NC(=O)[C@H](CC(=O)O)NC(=O)[C@H](CCC(=O)O)NC(=O)[C@@H]1CCC(=O)N1)C(=O)O [SEQ I.D. No: 5, Xaa Glu Asp Cys Lys] (HELM PEPTIDE1{[Glp].E.D.C.K}$$$$V2.0)",higher than 10^-13 mole/l,higher than 10^-13 mole/l,higher than 10^-13 mole/l,32%,can inhibit the proliferation,ineffective,,
"CC(=O)NCSC[C@H](NC(=O)[C@H](CC(=O)O)NC(=O)[C@@H](N)CCC(=O)O)C(=O)N[C@@H](CCCCN)C(=O)O [SEQ I.D. No: 2, Glu Asp Cys Lys] (H-EDC(Acm)K-OH)",,,,,,,did not inhibit,did not inhibit
"CC(=O)NCSC[C@H](NC(=O)[C@H](CC(=O)O)NC(=O)[C@H](CCC(=O)O)NC(=O)[C@@H]1CCC(=O)N1)C(=O)N[C@@H](CCCCN)C(=O)O [SEQ I.D. No: 1, Xaa Glu Asp Cys Lys] ([pGlu]EDC(Acm)K-OH)",,,,22%,,,,
